Percent effect of library compounds

Sequences of proteins named here, by UniProt entry; tags and fusion partners are left off. Residues count along the entry.
UniProt Q8IDJ8, 1-583: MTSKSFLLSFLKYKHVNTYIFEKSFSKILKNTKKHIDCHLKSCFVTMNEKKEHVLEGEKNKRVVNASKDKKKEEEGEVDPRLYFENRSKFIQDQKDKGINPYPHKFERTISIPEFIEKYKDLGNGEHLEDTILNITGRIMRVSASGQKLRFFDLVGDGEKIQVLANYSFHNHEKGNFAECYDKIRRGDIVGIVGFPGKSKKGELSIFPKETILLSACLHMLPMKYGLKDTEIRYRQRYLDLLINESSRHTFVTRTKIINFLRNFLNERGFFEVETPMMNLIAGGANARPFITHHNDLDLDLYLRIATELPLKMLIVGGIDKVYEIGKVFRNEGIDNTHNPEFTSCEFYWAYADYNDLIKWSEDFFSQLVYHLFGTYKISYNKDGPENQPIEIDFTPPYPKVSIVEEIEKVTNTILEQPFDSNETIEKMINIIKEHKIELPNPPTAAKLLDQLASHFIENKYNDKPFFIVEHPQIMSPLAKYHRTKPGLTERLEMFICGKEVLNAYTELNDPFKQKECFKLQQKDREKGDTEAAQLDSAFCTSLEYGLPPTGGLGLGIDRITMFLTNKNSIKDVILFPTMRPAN
UniProt A4I591, 1-473: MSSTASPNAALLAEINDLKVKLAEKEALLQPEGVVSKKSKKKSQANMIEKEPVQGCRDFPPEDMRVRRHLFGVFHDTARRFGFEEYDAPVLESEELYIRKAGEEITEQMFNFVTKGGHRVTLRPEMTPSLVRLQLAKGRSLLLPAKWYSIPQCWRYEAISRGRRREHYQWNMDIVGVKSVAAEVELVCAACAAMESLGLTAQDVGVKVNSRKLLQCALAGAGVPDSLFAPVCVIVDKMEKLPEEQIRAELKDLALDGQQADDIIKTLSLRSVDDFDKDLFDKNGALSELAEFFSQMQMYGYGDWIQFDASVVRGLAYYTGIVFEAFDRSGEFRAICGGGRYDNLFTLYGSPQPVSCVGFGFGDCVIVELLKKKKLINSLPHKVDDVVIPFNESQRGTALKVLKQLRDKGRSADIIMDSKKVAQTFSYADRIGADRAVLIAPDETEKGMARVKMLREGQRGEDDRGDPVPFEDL

Source: ChEMBL document CHEMBL3988442, “University of Dundee, Small-Polar-MMV Screening Library” (2021).

T. brucei: 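Whole-parasite assay of Trypanosoma brucei over 72 hours; the read-out is not stated. Compounds at 30 µM. The record gives no direction; compounds that gave an IC50 in retests scored well above the rest, so higher reads as stronger inhibition. Values scatter widely below zero; nearly all retest evidence comes from the higher of the two concentrations used. Of about 64,000 compounds tested this way, about 940 (1.5%) reached 50% or more in at least one test.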
PfKRS1: 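Enzyme assay of the cytosolic lysyl-tRNA synthetase in 384-well plates, read by luminescence. Target: Lysine-tRNA ligase, Plasmodium falciparum 3D7 (UniProt Q8IDJ8). Tested at 30 µM. Direction is inferred from only a few compounds that gave an IC50; most scored high, so higher reads as stronger inhibition. About 69,000 compounds were tested under these conditions; 0.071% (about 49) showed 50% or more at least once.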
LiHisRS: 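Histidine-tRNA ligase, Leishmania infantum (UniProt A4I591). Enzyme assay of histidyl-tRNA synthetase; the read-out is not stated. Concentration: 30 µM. Direction is inferred from retests: higher values go with stronger inhibition. The assay is labelled LdHisRS but filed under L. infantum. Size under these conditions: about 69,000 compounds, about 410 of them at 50% or above in at least one test.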
Toxoplasma: 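Assay of Toxoplasma gondii numbers, read through their beta-galactosidase reporter with a colour substrate. Compounds at 10 µM. The record gives no direction; the compounds picked for IC50 retests had high values, so higher reads as fewer parasites. Size under these conditions: about 67,000 compounds, about 260 of them at 50% or above in at least one test.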

Each number is a percent effect as filed. The record does not define 0% and 100%; most values in the screen are far below 50% and negative numbers occur (in some assays of this library far below -100). The compounds are a random part of those screened. A dash means the value is not listed here; it may have been measured.

| # | SMILES | T. brucei | PfKRS1 | LiHisRS | Toxoplasma |
|---|---|---|---|---|---|
| 1 | `CCn1cc(NS(=O)(=O)c2ccc(Br)s2)c(C(N)=O)n1` | -24.98 | 1.28 | 8.046 | 14.57 |
| 2 | `Cc1nc(CN2C(=O)COC3(CCN(C)CC3)C2C)cs1` (stereo not given) | - | 2.054 | 20.21 | - |
| 3 | `O=C(NCCCOCC1CCCO1)c1cccnc1N1CCCC1` (stereo not given) | -13.6 | 6.491 | 7.692 | -8.921 |
| 4 | `NC(=O)c1cn(CC2CC2)c(C2CC2)n1` | 1.508 | 6.144 | 16.85 | 7.422 |
| 5 | `CC(C)C(C(=O)NC1CCOCC1)n1cnc2cc(F)c(F)cc21` (stereo not given) | -4.207 | 6.717 | 13.7 | -15.37 |
| 6 | `Cc1noc(C2CN(Cc3ccc4c(c3)CCO4)C2)n1.O=C(O)C(=O)O` | 15.9 | - | - | 7.851 |
| 7 | `Cc1nnc2n1CCN(C(=O)COCCOc1ccccc1)C2` | 12.09 | 1.016 | 13.51 | 15.8 |
| 8 | `Cc1cc(C)n(CC2CCCCN2CC(=O)Nc2nncs2)n1` (stereo not given) | 27.84 | 6.274 | 22.33 | -2.093 |
| 9 | `O=C1NC2(CCc3ccccc31)CCN(C(=O)c1cccnc1)C2` (stereo not given) | -7.174 | 0.9112 | 4.317 | 10.92 |
| 10 | `CCc1noc(CN2CCN(C(=O)c3ccccc3F)CC2)n1` | -19.37 | 4.855 | 10.71 | -15.87 |
| 11 | `O=C(CS(=O)(=O)Cc1ccc(Br)cc1F)Nc1cn[nH]c1` | -49.43 | 4.521 | 19.84 | 3.951 |
| 12 | `O=C(c1ccc(Cl)cc1)N1CCC(N2CCCOC2=O)CC1` | - | 2.754 | 12.41 | -3.838 |
| 13 | `CNC(=O)C1CCN(c2nccc(CCC(F)(F)F)n2)C1` (stereo not given) | -1.216 | 2.352 | 11.29 | - |
| 14 | `Cc1nc(CNC(=O)NC2CCCN(c3ncccn3)C2)cs1` (stereo not given) | -43.71 | -12.84 | 15.96 | -1.182 |
| 15 | `O=C(O)C(F)(F)F.O=C1N(Cc2ccncc2)CCC12CCCN(c1ncc(F)cn1)C2` (stereo not given) | -38.62 | - | - | 8.672 |
| 16 | `COc1cccc2cc(CNCc3ccnc(N4CCCCC4)c3)oc12` | 10.53 | 5.032 | 28.57 | -18.54 |
| 17 | `CCc1noc(C2CCCCN2C(=O)c2cc(C)oc2C)n1` (stereo not given) | -25.5 | 0.07238 | 10.34 | 15.15 |
| 18 | `Cc1ccc(N2CC[C@@H]3[C@@H]2CCN3C(=O)c2cscn2)nn1` | - | 3.377 | 7.895 | - |
| 19 | `O=C(c1cnccn1)N1CCCC2(CCN(c3ncccn3)C2)C1` (stereo not given) | - | 2.461 | 11.5 | - |
| 20 | `[H][C@@]12CS(=O)(=O)C[C@]1([H])N(C(=O)Cc1ccc(F)c(C)c1)CCN2CC1CC1` | -18.21 | - | - | -4.885 |
| 21 | `NC(=O)CCC(=O)N1CCc2[nH]nc(-c3ccc4c(c3)OCO4)c2C1` | -221.9 | 4.649 | 25 | 0.9202 |
| 22 | `Cc1cc(C(=O)N2CCOC(c3nc(C)n[nH]3)C2)[nH]n1` (stereo not given) | -71.41 | -0.8797 | 2.857 | 1.426 |
| 23 | `Cc1ccc2nc(C3CCN(CC4CC4)CC3)nn2c1` | - | -5.088 | 4.839 | - |
| 24 | `O=C(O)C(F)(F)F.[H][C@]12CCCC(N(C)Cc3cccs3)[C@@]1([H])CN(C(=O)c1cnoc1C)C2` (stereo not given in full) | -52.91 | - | - | -1.888 |
| 25 | `NC(=O)COc1ccc(C(=O)N2CCCC(n3ccnc3)C2)cc1` (stereo not given) | -2.541 | 3.357 | 10.71 | -18.08 |
| 26 | `CCS(=O)(=O)c1ccc2c(c1)N1CCS(=O)(=O)N=C1O2` | -37.06 | 1.375 | 0 | -0.6957 |
| 27 | `Cc1nc(C)n(C2CCCN(C(=O)CCn3cncn3)C2)n1` (stereo not given) | -10.82 | 0.9574 | 15.29 | 12.1 |
| 28 | `Fc1cccc(O[C@@H]2C[C@H]3CN(Cc4ccncc4)CCN3C2)c1` | - | -2.084 | 1.01 | - |
| 29 | `O=C(C1CCC1)N1CCCC(c2cccc(-n3ccnc3)n2)C1` (stereo not given) | 12.8 | 2.219 | 21.74 | -7.843 |
| 30 | `C=C/C=c1\c(=C/C)oc2c(NCc3ccccc3)nc(CC)nc12` | -54.17 | -0.3661 | 20.88 | 39.81 |
| 31 | `COCCN(C)CC(=O)N1C[C@@H](C)[C@](O)(C(C)C)C1` | -12.96 | 1.126 | 13.83 | 9.528 |
| 32 | `Cc1cnc(N2CCN(C)c3ncccc3C2)nc1.O=C(O)C(F)(F)F` | -62.88 | - | - | 1.672 |
| 33 | `CCN1C(=O)CC(c2ccccc2)C12CCN(CC1CCOCC1)CC2.O=C(O)C(F)(F)F` (stereo not given) | 16.26 | - | - | -21.26 |
| 34 | `Cc1ccc(CN2CCC3(CCCN(S(C)(=O)=O)C3)C2)o1` (stereo not given) | -24.07 | 5.802 | 21 | -6.071 |
| 35 | `O=C(c1cc(COc2ccc3c(c2)OCO3)[nH]n1)N1CCOCC1` | -25.68 | -10.94 | 3.81 | 23.69 |
| 36 | `COc1cc(N2CCCn3cnc(COC(C)C)c3C2)ncn1` | - | -1.877 | 17.54 | - |
| 37 | `Cc1ccc2c(c1)N(C(=O)c1c[nH]c(C)cc1=O)CC(C)O2` (stereo not given) | -52.66 | -4.2 | -7.447 | 24.86 |
| 38 | `CC(C)NC(=O)CCNC(=O)c1cnc(Cc2ccc(F)cc2)s1` | 40.52 | 5.718 | 15.18 | 4.302 |
| 39 | `Cc1cccc(CN2CC3C[C@]3(NC(=O)c3ccoc3)C2)n1` (stereo not given in full) | -50.58 | -0.7597 | 15.38 | 4.202 |
| 40 | `Oc1cccc(-c2cc(C3CCN(Cc4cncnc4)C3)ccn2)c1` (stereo not given) | -30.57 | -1.664 | 12.68 | 0.5564 |
| 41 | `CC(C)CCN1Cc2c(C(=O)N3CCCC3)nn(C)c2C1` | - | -0.3156 | 15.38 | - |